In the supplement of paper PMC10735217:
The other results are listed elsewhere or left out. Repeats in this data set agree poorly, so a single value says little.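 The human kidney-derived cells carry a stably integrated construct of eight TEAD-binding elements driving luciferase, read by luminescence in a drug-repurposing library screen. A compound counts as a hit when its signal is more than five robust Z scores above the plate mean.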

Tested on: HEK293A TEAD-LUC reporter
Test: TEAD-luciferase reporter activity (YAP activation), robust Z score vs plate; higher = stronger YAP/TEAD activation
Conditions: 24 h

| SMILES | TEAD-luciferase reporter activity (compound concentration: 200 nM) | TEAD-luciferase reporter activity (compound concentration: 2 uM) | TEAD-luciferase reporter activity (compound concentration: 10 uM) |
| --- | --- | --- | --- |
| O=C([O-])C1O[C@@H](OC2[C@H](O)C(NS(=O)(=O)[O-])C(O)O[C@@H]2COS(=O)(=O)[O-])C(OS(=O)(=O)[O-])[C@@H](O)C1O (stereo partly drawn) | inactive: -0.508 | inactive: 0.00717 | inactive: 0.243 |
| CCCC(=O)OCOC(=O)C(C)(C)C | inactive: -1.57 | inactive: -1.46 | inactive: 0.217 |
| COc1ccc(-n2nnnc2C(F)(F)F)cc1CN[C@@H]1CCCN[C@@H]1c1ccccc1 | inactive: -1.06 | inactive: 1.53 | inactive: -0.0927 |
| Fc1ccc(OC[C@@H]2CNCCO2)c2c1CCC2 | inactive: 3.37 | inactive: 3.53 | inactive: -0.146 |
| CC(C)NCC(O)CC(c1ccccc1)c1ccccc1 (stereo not drawn) | inactive: 0.1 | inactive: -1.65 | inactive: -1.03 |
| O=C1N[C@@H]2[C@@H](O)[C@@H](O)[C@H](O)[C@@H](CO)N2C1=O [kifunensine] | inactive: -0.413 | inactive: -0.735 | inactive: -1.24 |
| CCCCn1c(=O)c2ncn(C)c2c2ccccc21 | inactive: -0.196 | inactive: -0.342 | inactive: 1.88 |
| COC(=O)[C@H](CC(C)C)NC(=O)N1CCN(Cc2[nH]cnc2C)C(=O)[C@@H]1Cc1ccccc1 | inactive: -0.277 | inactive: -2.04 | inactive: -1.7 |
| NC(=O)c1cn(Cc2c(F)cccc2F)nn1 [rufinamide (oral suspension)] | inactive: -0.361 | inactive: 2.19 | inactive: 2.75 |
| CC(C)(O)CC[C@@H](O)[C@](C)(O)[C@H]1CC[C@@]2(O)C3=CC(=O)[C@@H]4C[C@@H](O)[C@@H](O)C[C@]4(C)[C@H]3CC[C@]12C | inactive: -0.841 | inactive: 1.85 | inactive: -0.106 |
| O=c1c(-c2ccc(O)cc2)coc2cc(O)ccc12 [4',7-Dihydroxyisoflava] |  | inactive: 0.634 |  |
| O=c1c(-c2ccc(O)cc2)coc2cc(O)ccc12 [Daidzein] | inactive: 0.0957 |  | inactive: -0.441 |
| Nc1c(Cl)cc(C(=O)NC[C@@H]2CCCN2)c2c1CCO2 | inactive: 3.27 | inactive: -1.52 | inactive: 0.297 |
| CC(C)n1c(=O)n(C(=O)NCC2CCN(CC3(C(=O)O)CCC3)CC2)c2ccccc21 | inactive: 0.166 | inactive: -0.198 | inactive: 1.19 |
| CC(C)(CC(=O)O)Cc1nc2cc(Cl)cnc2n1Cc1ccc(Cl)cc1 | inactive: -1.44 | inactive: 0.498 | inactive: -0.487 |
| O=C(NC(Cc1cc(=O)[nH]c2ccccc12)C(=O)O)c1ccc(Cl)cc1 (stereo not drawn) [rebamipide (ophthalmic)] | inactive: -3.12 | inactive: -1.55 | inactive: 0.501 |
| NC12CC3CC(CC(C3)C1)C2 [Symmetrel665-66-7] | inactive: 0.415 |  | inactive: -0.613 |
| Cc1ccccc1N1CCN(S(=O)(=O)C[C@]23CC[C@H](C[C@@H]2NC(=O)[C@@H](N)CCS(C)(=O)=O)C3(C)C)CC1 | inactive: -0.975 | inactive: 0.332 | inactive: 1.28 |
| CC[C@H](NC(=O)[C@H](C)NC)C(=O)N1C[C@@H](O)C[C@H]1Cc1c(-c2[nH]c3cc(F)ccc3c2C[C@@H]2C[C@H](O)CN2C(=O)[C@H](CC)NC(=O)[C@H](C)NC)[nH]c2cc(F)ccc12 [Birinapant] | inactive: -1.35 | inactive: 0.991 | inactive: 1.36 |
| C[C@H]1C[C@H](N)CN1c1cc2c(cc1F)c(=O)c(C(=O)O)cn2-c1ccc(F)cc1F | inactive: 0.0797 | inactive: -0.75 | inactive: 1.69 |
| O=C(CCNC(=O)OCc1ccccc1)NCCS(=O)(=O)[O-] [Taurox SB] | inactive: 0.743 | inactive: -0.594 | inactive: -0.371 |
| COc1ccccc1CNCCCCCCNCCCCCCCCNCCCCCCNCc1ccccc1OC [methoctramine] | inactive: -1.23 |  | inactive: -1.26 |
| OC[C@H]1O[C@@H](c2ccc(Cl)c(Cc3ccc(O[C@H]4CCOC4)cc3)c2)[C@H](O)[C@@H](O)[C@@H]1O [Empagliflozin] | inactive: 1.82 | inactive: -0.727 | inactive: -0.846 |
| COc1ccc2c(c1)c(CC(=O)O)c(C)n2C(=O)c1cccnc1 | inactive: -1.47 | inactive: 0.154 | inactive: -0.203 |
| CN(C)CCCSc1c2ccccc2nn1Cc1ccccc1 [dazidamine] | inactive: -1.66 | inactive: -1.73 | inactive: 2.66 |
| c1ccc(-c2cc(OCCCN3CCN(c4ccccn4)CC3)nn2-c2ccccc2)cc1 | inactive: 0.268 | inactive: -0.0238 | inactive: -0.506 |
| O=S([O-])([O-])=S | inactive: 0.948 | inactive: -1.24 | inactive: -0.307 |
| O=S([O-])([O-])=S [sodium thiosulfate] |  | inactive: -0.693 |  |

Full records, quoted from the list. Order of values: TEAD-luciferase reporter activity (compound concentration: 200 nM)	TEAD-luciferase reporter activity (compound concentration: 2 uM)	TEAD-luciferase reporter activity (compound concentration: 10 uM)
Cc1ccccc1N1CCN(S(=O)(=O)C[C@]23CC[C@H](C[C@@H]2NC(=O)[C@@H](N)CCS(C)(=O)=O)C3(C)C)CC1 as listed: inactive: -0.975	inactive: 0.332	inactive: 1.28
CN(C)CCCSc1c2ccccc2nn1Cc1ccccc1 [dazidamine] as listed: inactive: -1.66	inactive: -1.73	inactive: 2.66
COc1ccc(-n2nnnc2C(F)(F)F)cc1CN[C@@H]1CCCN[C@@H]1c1ccccc1 as listed: inactive: -1.06	inactive: 1.53	inactive: -0.0927

Going on with the list.

| SMILES | TEAD-luciferase reporter activity (compound concentration: 200 nM) | TEAD-luciferase reporter activity (compound concentration: 2 uM) | TEAD-luciferase reporter activity (compound concentration: 10 uM) |
| --- | --- | --- | --- |
| CC(=O)c1ccccc1 | inactive: -1.26 | inactive: -1.01 | inactive: -1.92 |
| C=CC1=C(C)C2=N/C/1=C\c1[nH]c(c(c1C)CC)/C=C/1\N=C3/C(=C/4\N/C(=C\2)/[C@@H](C)C4CCC(=O)O)/CC(=O)C3=C1C (stereo partly drawn) | inactive: -1.07 | inactive: -0.602 | inactive: 0.419 |
| CN1N=C(N)c2cn([C@@H]3O[C@H](COP(=O)(O)O)[C@@H](O)[C@H]3O)c3ncnc1c23 [triciribine phosphate] | inactive: -0.278 | inactive: -1.22 | inactive: -1.36 |
| CC(C)C(N)=O [Isobutyramide] | inactive: -0.532 | inactive: 0.919 | inactive: 0.248 |
| COC[C@H](C)Oc1cc(Oc2cnc(C(=O)N3CCC3)cn2)cc(C(=O)Nc2ccn(C)n2)c1 | inactive: -0.199 | inactive: -1.35 | inactive: 0.357 |
| CCC(OC)c1c(O)c(=O)cc(C)n1C (stereo not drawn) | inactive: -1.1 | inactive: -0.328 | inactive: -0.174 |
| NCCC(=O)N1Cc2ccccc2CC2(CCCCN2CC2CCNCC2)C1 (stereo not drawn) | inactive: -1.33 |  | inactive: 2.08 |
| CCc1cnc(N2CCC(c3nc(COc4ccc(-n5cnnn5)cc4)cs3)CC2)nc1 | inactive: -0.37 | inactive: -0.848 | active: 8.53 |
| O=S(=O)(c1cccc2ccccc12)c1n[nH]c2ccc(N3CCNCC3)cc12 | inactive: -0.55 | inactive: -1.97 | inactive: -0.486 |
| CC(C)C[C@@H](C(=O)N[C@H](c1noc(-c2cccs2)n1)C(C)(C)C)[C@H](O)C(=O)NO | inactive: 0.136 | inactive: -0.871 | inactive: 0.582 |
| N=C1NCCN1CC(=O)O [Cyclocreatine] | inactive: -0.413 | inactive: 0.683 | inactive: -0.702 |
| COc1cc([C@@H]2c3cc4c(cc3[C@@H](NC(=O)Cc3ccccc3)[C@H]3COC(=O)[C@H]23)OCO4)cc(OC)c1OC | inactive: 1.6 | inactive: 1.06 | inactive: -2.51 |
| C[C@H](CSC(=O)c1ccccc1)C(=O)N1C[C@@H](Sc2ccccc2)C[C@H]1C(=O)O | inactive: -0.256 | inactive: 0.0183 | inactive: 1.57 |
| NC1=N[C@@](c2cccc(-c3cncnc3)c2)(c2ccnc(C(F)F)c2)c2cccc(F)c21 | inactive: 0.368 | inactive: 0.0378 | inactive: -1.03 |
| CCCCCC1C(O)CCC1CC(=O)O (stereo not drawn) | inactive: -0.162 | inactive: -0.334 | inactive: 1.29 |
| N=C(N)c1cc2ccc(OC(=O)c3cccs3)cc2s1 | inactive: 1.28 | inactive: 2.84 | inactive: 0.537 |
| NS(=O)(=O)c1cc2c(cc1Cl)NC(Cc1ccccc1)NS2(=O)=O (stereo not drawn) | inactive: 0.271 | inactive: -0.732 | inactive: 0.45 |
| CCCC1(CCC)CCC2(CCN(CCCN(CC)CC)C2)CC1 [atiprimod dimaleate] | inactive: 0.0785 | inactive: -0.437 | inactive: 0.111 |
| O[C@H]1[C@H](O)[C@@H](O)[C@H](O)[C@@H](O)[C@@H]1O [scyllo-Inositol] | inactive: -1.2 | inactive: -0.296 | inactive: -0.578 |
| Cc1cc(O)c(C(=O)N[C@@H](C(=O)N[C@@H]2C(=O)N3C(C(=O)O)=C(CSc4nnnn4C)CS[C@H]23)c2ccc(O)cc2)cn1 [cefpiramide] | inactive: 0.557 | inactive: -0.73 | inactive: 0.936 |
| CCNCCS(=O)(=O)NC[C@@]1(c2ccccc2)SC(NC(=O)C(C)(C)C)=NN1C(=O)C(C)(C)C [litronesib] | inactive: -1.45 | inactive: -1.02 | inactive: -0.64 |
| O=C(O)[C@@H]1C[C@H](Cc2nnn[nH]2)CCN1 | inactive: -1.31 |  | inactive: 2.13 |
| C=CC1=C(C(=O)O)N2C(=O)[C@@H](NC(=O)/C(=N/OCC(=O)O)c3csc(N)n3)[C@H]2SC1 | inactive: -0.783 |  | inactive: 2.68 |
| C=CC1=C(C(=O)O)N2C(=O)[C@@H](NC(=O)/C(=N/OCC(=O)O)c3csc(N)n3)[C@H]2SC1 [cefixime] |  | inactive: -1.88 |  |
| O=C1N=C2C=CC=CN2C1(Cc1ccccc1)Cc1ccccc1 | inactive: -1.45 | inactive: -0.655 | inactive: 0.292 |
| Cn1cnc2c(OCc3ccccc3Cl)nccc21 | inactive: 1.43 | inactive: 0.629 | inactive: 1.69 |
| c1cnc(SCc2cccnc2)nc1 [tasuldine] | inactive: 0.856 | inactive: -1.43 | inactive: -0.351 |
